{"source": "patent EP4696714A1", "about": "“PREPARATION METHOD FOR NANOBODY TARGETING TISSUE FACTOR AND CONJUGATE AND USE THEREOF” (Fudan University, priority 2023, dated 2024)", "molecular_target": "cynomolgus monkey TF-ECD (extracellular domain fragment of TF protein) (cynomolgus monkey)", "test": "ELISA, cynomolgus monkey TF-ECD coated", "note": "These are yes or no findings as the source states them, for the method shown. A result given as binding can be weak or reduced; the word gives no strength."}
{"binder": "original nanobody 4A02 (parental antibody 4A02, as comparator in Examples 11 and 12) (Fc fusion, not shown: Fc segment of the comparator) VHH: QVQLVESGGGLVQPGGSLSLSCTASETISSTYIMGWHRRSPGKERELVAVISGDGVTHYADFVKGRFVISRDNAKNAVYLKMNFLTPEDTAVYYCYAAGRWNHWGQGTQVTVSS", "values": [{"measurement": "binding", "result": "binds"}]}
